Measurements as given in EP1992347A1 (CELLZOME AG, priority 2007, dated 2008).
At least one structure is not confirmed: it was looked up by name or label, or the drawing left a doubt.

Sequences of proteins named here, by UniProt entry; tags and fusion partners are left off.
UniProt Q05397, whole entry, species assumed: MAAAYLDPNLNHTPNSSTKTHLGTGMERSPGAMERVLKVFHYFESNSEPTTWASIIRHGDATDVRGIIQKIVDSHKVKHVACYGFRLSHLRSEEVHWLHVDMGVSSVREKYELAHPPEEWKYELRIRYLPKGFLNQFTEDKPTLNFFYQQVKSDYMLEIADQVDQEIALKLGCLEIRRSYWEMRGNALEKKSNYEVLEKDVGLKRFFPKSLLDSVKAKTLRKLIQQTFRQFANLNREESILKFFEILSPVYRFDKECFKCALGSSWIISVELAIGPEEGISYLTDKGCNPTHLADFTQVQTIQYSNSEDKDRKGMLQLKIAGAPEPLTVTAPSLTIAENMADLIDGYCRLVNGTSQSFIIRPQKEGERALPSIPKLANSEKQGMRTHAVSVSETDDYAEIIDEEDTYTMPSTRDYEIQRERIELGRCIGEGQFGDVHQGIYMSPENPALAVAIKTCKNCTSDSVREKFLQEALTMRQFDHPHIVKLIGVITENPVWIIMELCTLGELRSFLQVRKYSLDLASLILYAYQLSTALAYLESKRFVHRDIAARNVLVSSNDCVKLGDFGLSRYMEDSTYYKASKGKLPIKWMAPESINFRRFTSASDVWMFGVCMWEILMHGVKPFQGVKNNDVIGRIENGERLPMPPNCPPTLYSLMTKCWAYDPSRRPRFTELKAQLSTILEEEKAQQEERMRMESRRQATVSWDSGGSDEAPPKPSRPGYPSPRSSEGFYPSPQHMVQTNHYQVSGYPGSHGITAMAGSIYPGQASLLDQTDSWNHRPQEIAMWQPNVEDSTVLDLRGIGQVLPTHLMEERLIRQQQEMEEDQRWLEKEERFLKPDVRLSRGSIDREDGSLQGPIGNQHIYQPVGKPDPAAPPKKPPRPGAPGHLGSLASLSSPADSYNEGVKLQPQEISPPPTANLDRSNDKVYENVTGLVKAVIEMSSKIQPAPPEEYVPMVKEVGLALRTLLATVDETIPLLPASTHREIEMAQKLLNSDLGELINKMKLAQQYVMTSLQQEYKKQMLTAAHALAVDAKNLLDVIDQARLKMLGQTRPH

Biological target: T1, purified recombinant FAK (Homo sapiens, UniProt Q05397)
T1 construct: purchased Invitrogen (SelectScreen service)
Assay: enzyme activity assay (Invitrogen SelectScreen service)
Type: biochemical

**Q.** Which “activity of purified recombinant FAK” value does the source give for `Cc1nc(Nc2ncc(C(=O)Nc3c(C)cccc3Cl)s2)cc(N2CCN(CCO)CC2)n1` [dasatinib] here?
**A.** The value was “potently inhibited”.
